Results are given in words; binding and its absence hold for the method and conditions named. Binding seen in cells or lysates may run through a third protein. Some entries that bind do so weakly or less than the wild type. For some of these results: Tags and fused reporters may be left off the sequences shown.
T1: GST-HP1c (Drosophila) (UniProt Q9VCU6)
T1 sequence: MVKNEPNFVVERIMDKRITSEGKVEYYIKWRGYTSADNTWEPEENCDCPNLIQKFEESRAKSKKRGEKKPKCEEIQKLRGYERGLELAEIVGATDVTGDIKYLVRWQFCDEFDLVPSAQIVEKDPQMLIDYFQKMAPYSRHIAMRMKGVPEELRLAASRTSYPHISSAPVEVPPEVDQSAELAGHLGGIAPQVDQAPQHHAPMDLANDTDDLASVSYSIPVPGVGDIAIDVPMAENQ

Amino acid sequences for entries named in this document (tags omitted). A change or cut given only in a name is not applied to a line headed by its entry.
UniProt P05205: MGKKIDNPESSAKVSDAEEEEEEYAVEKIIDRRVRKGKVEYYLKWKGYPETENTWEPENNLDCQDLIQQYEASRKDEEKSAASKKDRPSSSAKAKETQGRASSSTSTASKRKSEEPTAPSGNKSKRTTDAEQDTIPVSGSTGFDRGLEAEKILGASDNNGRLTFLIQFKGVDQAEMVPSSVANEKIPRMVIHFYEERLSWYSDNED
UniProt P45975: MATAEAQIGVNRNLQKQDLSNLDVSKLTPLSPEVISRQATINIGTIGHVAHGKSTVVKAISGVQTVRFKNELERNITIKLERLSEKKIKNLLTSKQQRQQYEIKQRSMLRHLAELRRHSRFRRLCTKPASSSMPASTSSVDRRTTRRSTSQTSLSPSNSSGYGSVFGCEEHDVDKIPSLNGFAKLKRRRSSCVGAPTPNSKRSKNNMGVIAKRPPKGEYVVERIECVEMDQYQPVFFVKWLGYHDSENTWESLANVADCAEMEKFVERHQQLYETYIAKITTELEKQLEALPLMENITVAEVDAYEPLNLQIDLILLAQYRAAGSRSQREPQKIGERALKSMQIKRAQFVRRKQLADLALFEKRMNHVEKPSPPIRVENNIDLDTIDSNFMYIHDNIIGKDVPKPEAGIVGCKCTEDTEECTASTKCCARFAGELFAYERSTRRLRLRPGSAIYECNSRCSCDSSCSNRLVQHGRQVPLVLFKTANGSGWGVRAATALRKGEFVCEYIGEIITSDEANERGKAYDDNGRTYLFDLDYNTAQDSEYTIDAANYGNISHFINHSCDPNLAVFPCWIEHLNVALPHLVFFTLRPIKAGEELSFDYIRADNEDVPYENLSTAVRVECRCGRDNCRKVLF


Columns and labels:
[1] = biological target: GST-HP1a (Drosophila) (UniProt P05205); experiment: pull-down; about 3 µg GST or HP1-GST fusion on glutathione sepharose beads; in vitro translated S^35-labeled prey, ethidium bromide 25 ng/µl; washed with CB200; autoradiography; only the target purified
[2] = biological target: T1, GST-HP1c (Drosophila); experiment: as above

Row | Molecule | binding [1] | binding [2]
1 | in vitro translated Su(var)3–9 (from UniProt P45975 1-635) | binds | no binding
2 | in vitro translated ACF1 (protein, UniProt Q9V9T4 1-1476) MPICKREGFDLNQKEGKNETFHDNDQVFCCYITKRIFRDYEHYFRHVMVINSTVWQCEATGKENLTYEEAVKSERAARKKMEQFKQSLRAPVLLVVEHAQQSAVNTLNMIVAKFLRKRYFIGEEVSVQAKKNATYTVLGVKLDKNMPEPLNGIYEDTDNLVYRLRPNKGDPSAELDLPFRQLRRSRMEFNLENLSMFIKSNVSRVDGLLRPKPEAYKQYVTDPGVNFSTIFIGKMPRYSPAKIKKPDGKKQSTLNKYIVAGEATAAKSKAKAKSDAKSLAEELERVKREKEAKLIELEKQKAEKKAQLIERVENECNLLLQKTDDLERTDQKVLPRYRQIVTLLPEHLLGDAFMMREFMHTYTGLLSGIEVFRQNLSFYEMTRALTAREIAGPLSDILLVLLGTVFDLQKEEEEECAVTYLDRAAQTQEPYWSMAQAAKSHLYAKRHFSFKVNELPLDALTLSEVLRLHLLGSGAFVNEKAERWRVMYRNGYSSKEDPGLELRLEHSHILRILKNHSVYQLKFKDIMLLIRCLMSQIMTYSGTINLIEERMEQTAKARQDLRALVVGENKRLAAVEINRKKLTQMHHLEVNGVEPEKREALVEKLKKSIAELHAQSDQQHRKHELQMLKLHSQLFNFLVYLGMDRCYRKYYVLESMPGIFVEHSPDSLDTCLEQPITNKSQIEIRQQSALPKNRKDLRVYLLKLYGDDEKKTKKKAKHSLENKENQEHRLNGSAEPMDVESDSPEAPTHFELLMCSGDKRSCIVHDSRNGQRQRWAYIYKAEEIDELIKALNPNGLREYELLQELSVLRSLIEQHAKTCPVDLLSLENETMRKKFMAAMESETNRKYGEANFGLPNGTDLNEVMRLHLVDRIIQFENDIYTGDLGRLKVKDMEKWRSDLLGGNYDAQCKLQWGPGGKLEDEAGSDNESHETHEEDDGALLGKYARKPYRDPGMYLAASADTKPLPDSDDEEDQHTNAVSIPIAVHNMASALLQVEQAIGKRFLKEPYGMKKWDPKQEALKLACDSRLHQWEVSLMESTSFAQVFLHLNILHDCIQWRRSTNKSLCKVCRRGSDPEKMLLCDECNAGTHMFCLKPKLRSVPPGNWYCNDCVKSLGLSNGQNEKDKKQATKKKRKFIVEEEDDEATDEEEEEKKDDDMTDEDAEHENEKHDEDVEDDESVTSTPSSSRVNGRILRRPRTRPTSRRLTSKEIEEHAQEDVDSGDVSDDASLTAGEDTIEDESDEEKVCQKCFYDGGEIKCVQCRLFFHLECVHLKRPPRTDFVCKTCKPMPQRPRRRHSNMNGDHDRDEEEPKAKRPRNSLRLSIDKTARPSNGNNNNNNNNSSVNNNNHRRSGRRTNEHMPLNSAALYDLLEQIMKHKAAWPFLRPVLTSEVPDYHQIIKTPMDLAKIKSKLNMGAYQLNEELLSDIQLVFRNCDLYNVEGNEIYDAGCQLERFVIDRCRDMQLPFRPSDMNGEVKAC | binds | no binding
